Test results: the supplement of paper PMC8728848
This is one part of the list.

Experiments:
Assay in all cases: glycan array binding signal (z-score within array); higher = stronger binding
Conditions in all cases: glycan notation: IUPAC condensed, linker removed
[1] = molecular target: GlcNAc(b1-3)Gal(b1-4)Glc
Summary of the method: (§1)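 Glycan array binding is given as a within-array Z-score, which can be read as non-binding when negative. The arrays, 3228 of them, came from the Consortium for Functional Glycomics database and were retained only where the protein sequence was available. Z-scores were averaged across arrays of the same protein sequence at different concentrations or buffers and across linkers.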

[2] = molecular target: GlcNAc(b1-3)Gal(b1-4)GlcNAc
Summary of the method: as §1

[3] = molecular target: GlcNAc(b1-3)Gal(b1-4)GlcNAc(b1-3)Gal(b1-4)GlcNAc
Summary of the method: as §1

[4] = molecular target: GlcNAc(b1-3)GalNAc
Summary of the method: as §1

[5] = molecular target: GlcNAc(b1-3)Man
Summary of the method: as §1

[6] = molecular target: GlcNAc(b1-3)[GlcNAc(b1-4)][GlcNAc(b1-6)]GlcNAc
Summary of the method: as §1

[7] = molecular target: GlcNAc(b1-3)[GlcNAc(b1-6)]Gal(b1-4)GlcNAc
Summary of the method: as §1

[8] = molecular target: GlcNAc(b1-3)[GlcNAc(b1-6)]GalNAc
Summary of the method: as §1

[9] = molecular target: GlcNAc(b1-4)Gal(b1-4)GlcNAc
Summary of the method: as §1

[10] = molecular target: GlcNAc(b1-4)GlcNAc
Summary of the method: as §1

[11] = molecular target: GlcNAc(b1-4)GlcNAc(b1-4)GlcNAc
Summary of the method: as §1

[12] = molecular target: GlcNAc(b1-4)GlcNAc(b1-4)GlcNAc(b1-4)GlcNAc(b1-4)GlcNAc
Summary of the method: as §1

[13] = molecular target: GlcNAc(b1-4)GlcNAc(b1-4)GlcNAc(b1-4)GlcNAc(b1-4)GlcNAc(b1-4)GlcNAc
Summary of the method: as §1

[14] = molecular target: GlcNAc(b1-4)[GlcNAc(b1-6)]GalNAc
Summary of the method: as §1

[15] = molecular target: GlcNAc(b1-6)Gal(b1-4)GlcNAc
Summary of the method: as §1

[16] = molecular target: GlcNAc(b1-6)GalNAc
Summary of the method: as §1

[17] = molecular target: GlcNAc3Prop(b1-4)GlcNAc
Summary of the method: as §1

[18] = molecular target: GlcNAc6S(b1-3)Gal(b1-4)GlcNAc
Summary of the method: as §1

[19] = molecular target: Kdn(a2-3)Gal(b1-3)GalNAc
Summary of the method: as §1

[20] = molecular target: Kdn(a2-3)Gal(b1-3)GlcNAc
Summary of the method: as §1

[21] = molecular target: Kdn(a2-3)Gal(b1-4)Glc
Summary of the method: as §1

[22] = molecular target: Kdn(a2-3)Gal(b1-4)GlcNAc
Summary of the method: as §1

[23] = molecular target: Kdn(a2-3)Gal(b1-4)[Fuc(a1-3)]GlcNAc
Summary of the method: as §1

[24] = molecular target: Kdn(a2-6)Gal(b1-4)GlcNAc
Summary of the method: as §1

[25] = molecular target: Man(a1-2)Man(a1-2)Man(a1-3)Man
Summary of the method: as §1

[26] = molecular target: Man(a1-2)Man(a1-2)Man(a1-6)[Man(a1-3)]Man
Summary of the method: as §1

[27] = molecular target: Man(a1-2)Man(a1-3)Man
Summary of the method: as §1

[28] = molecular target: Man(a1-2)Man(a1-3)[Man(a1-2)Man(a1-6)]Man
Summary of the method: as §1

[29] = molecular target: Man(a1-2)Man(a1-3)[Man(a1-2)Man(a1-6)]Man(a1-6)[Man(a1-2)Man(a1-2)Man(a1-3)]Man
Summary of the method: as §1

[30] = molecular target: Man(a1-2)Man(a1-3)[Man(a1-2)Man(a1-6)]Man(a1-6)[Man(a1-2)Man(a1-2)Man(a1-3)]Man(b1-4)GlcNAc(b1-4)GlcNAc
Summary of the method: as §1

[31] = molecular target: Man(a1-2)Man(a1-3)[Man(a1-6)]Man(a1-6)[Man(a1-2)Man(a1-3)]Man(b1-4)GlcNAc(b1-4)GlcNAc
Summary of the method: as §1

[32] = molecular target: Man(a1-2)Man(a1-6)[Man(a1-3)]Man(a1-6)[Man(a1-2)Man(a1-2)Man(a1-3)]Man
Summary of the method: as §1

[33] = molecular target: Man(a1-2)Man(a1-6)[Man(a1-3)]Man(a1-6)[Man(a1-2)Man(a1-2)Man(a1-3)]Man(b1-4)GlcNAc(b1-4)GlcNAc
Summary of the method: as §1

[34] = molecular target: Man(a1-3)[Man(a1-6)]Man
Summary of the method: as §1

[35] = molecular target: Man(a1-3)[Man(a1-6)]Man(a1-6)[Man(a1-2)Man(a1-3)]Man(b1-4)GlcNAc(b1-4)GlcNAc
Summary of the method: as §1

[36] = molecular target: Man(a1-3)[Man(a1-6)]Man(a1-6)[Man(a1-3)]Man
Summary of the method: as §1

[37] = molecular target: Man(a1-3)[Man(a1-6)]Man(a1-6)[Man(a1-3)]Man(b1-4)GlcNAc(b1-4)GlcNAc
Summary of the method: as §1

[38] = molecular target: Man(a1-3)[Man(a1-6)]Man(b1-4)GlcNAc(b1-4)GlcNAc
Summary of the method: as §1

[39] = molecular target: Man(a1-6)Man
Summary of the method: as §1

[40] = molecular target: Man(b1-4)GlcNAc
Summary of the method: as §1

[41] = molecular target: Neu5Ac(a2-3)Gal
Summary of the method: as §1

[42] = molecular target: Neu5Ac(a2-3)Gal(b1-3)GalNAc
Summary of the method: as §1

[43] = molecular target: Neu5Ac(a2-3)Gal(b1-3)GalNAc(b1-3)Gal(a1-4)Gal(b1-4)Glc
Summary of the method: as §1

[44] = molecular target: Neu5Ac(a2-3)Gal(b1-3)GalNAc(b1-4)[Neu5Ac(a2-3)]Gal(b1-4)Glc
Summary of the method: as §1

[45] = molecular target: Neu5Ac(a2-3)Gal(b1-3)GalNAc(b1-4)[Neu5Ac(a2-8)Neu5Ac(a2-3)]Gal(b1-4)Glc
Summary of the method: as §1

B1: DCL-1 (Homo sapiens), Q8IX05 (protein)
chain: MLRAALPALLLPLLGLAAAAVADCPSSTWIQFQDSCYIFLQEAIKVESIEDVRNQCTDHGADMISIHNEEENAFILDTLKKQWKGPDDILLGMFYDTDDASFKWFDNSNMTFDKWTDQDDDEDLVDTCAFLHIKTGEWKKGNCEVSSVEGTLCKTAIPYKRKYLSDNHILISALVIASTVILTVLGAIIWFLYKKHSDSRFTTVFSTAPQSPYNEDCVLVVGEENEYPVQFD
- glycan array binding signal (z-score) [1]: -1.25
- glycan array binding signal (z-score) [2]: -0.305
- glycan array binding signal (z-score) [3]: -0.074
- glycan array binding signal (z-score) [4]: -0.013
- glycan array binding signal (z-score) [5]: -0.813
- glycan array binding signal (z-score) [6]: -0.42
- glycan array binding signal (z-score) [7]: -1.34
- glycan array binding signal (z-score) [8]: 0.07
- glycan array binding signal (z-score) [9]: -0.427
- glycan array binding signal (z-score) [10]: -0.726
- glycan array binding signal (z-score) [11]: -0.503
- glycan array binding signal (z-score) [12]: -0.519
- glycan array binding signal (z-score) [13]: 0.08
- glycan array binding signal (z-score) [14]: -0.48
- glycan array binding signal (z-score) [15]: -0.008
- glycan array binding signal (z-score) [16]: -0.659
- glycan array binding signal (z-score) [17]: -0.813
- glycan array binding signal (z-score) [18]: -1.26
- glycan array binding signal (z-score) [19]: 0.017
- glycan array binding signal (z-score) [20]: -0.584
- glycan array binding signal (z-score) [21]: -0.493
- glycan array binding signal (z-score) [22]: -0.12
- glycan array binding signal (z-score) [23]: -1.07
- glycan array binding signal (z-score) [24]: 0.047
- glycan array binding signal (z-score) [25]: -0.704
- glycan array binding signal (z-score) [26]: -0.826
- glycan array binding signal (z-score) [27]: -0.662
- glycan array binding signal (z-score) [28]: -0.811
- glycan array binding signal (z-score) [29]: 0.35
- glycan array binding signal (z-score) [30]: 2.43
- glycan array binding signal (z-score) [31]: 0.13
- glycan array binding signal (z-score) [32]: -0.485
- glycan array binding signal (z-score) [33]: 1.01
- glycan array binding signal (z-score) [34]: -0.463
- glycan array binding signal (z-score) [35]: 10.6
- glycan array binding signal (z-score) [36]: 0.819
- glycan array binding signal (z-score) [37]: -0.104
- glycan array binding signal (z-score) [38]: 1
- glycan array binding signal (z-score) [39]: 0.664
- glycan array binding signal (z-score) [40]: 1.61
- glycan array binding signal (z-score) [41]: -0.032
- glycan array binding signal (z-score) [42]: -0.514
- glycan array binding signal (z-score) [43]: 3.04
- glycan array binding signal (z-score) [44]: -1.36
- glycan array binding signal (z-score) [45]: -0.059
